Assay results: the supplement of paper PMC10849652
The list shows a part of the results.

Amino acid sequences for entries named in this document (tags omitted). A change or cut given only in a name is not applied to a line headed by its entry.
UniProt Q99873, whole entry, looked up: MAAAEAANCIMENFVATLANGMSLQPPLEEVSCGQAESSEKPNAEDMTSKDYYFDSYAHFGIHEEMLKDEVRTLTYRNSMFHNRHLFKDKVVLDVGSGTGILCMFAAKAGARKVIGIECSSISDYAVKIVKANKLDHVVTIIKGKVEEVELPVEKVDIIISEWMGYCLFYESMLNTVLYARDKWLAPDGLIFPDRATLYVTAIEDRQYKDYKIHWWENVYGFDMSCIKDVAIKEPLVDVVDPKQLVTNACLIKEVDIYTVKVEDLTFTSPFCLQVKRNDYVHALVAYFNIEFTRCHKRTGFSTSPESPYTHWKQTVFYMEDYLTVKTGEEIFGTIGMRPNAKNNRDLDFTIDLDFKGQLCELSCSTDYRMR
UniProt P62140, whole entry, looked up: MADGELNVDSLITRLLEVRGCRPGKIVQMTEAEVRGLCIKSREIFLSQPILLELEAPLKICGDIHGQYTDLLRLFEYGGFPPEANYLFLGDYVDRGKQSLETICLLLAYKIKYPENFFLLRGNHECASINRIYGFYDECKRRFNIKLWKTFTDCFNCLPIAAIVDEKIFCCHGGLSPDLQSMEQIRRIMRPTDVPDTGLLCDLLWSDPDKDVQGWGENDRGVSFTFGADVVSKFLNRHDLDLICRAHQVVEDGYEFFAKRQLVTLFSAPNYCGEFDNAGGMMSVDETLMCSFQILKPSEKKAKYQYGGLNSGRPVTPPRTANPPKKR
UniProt P49642: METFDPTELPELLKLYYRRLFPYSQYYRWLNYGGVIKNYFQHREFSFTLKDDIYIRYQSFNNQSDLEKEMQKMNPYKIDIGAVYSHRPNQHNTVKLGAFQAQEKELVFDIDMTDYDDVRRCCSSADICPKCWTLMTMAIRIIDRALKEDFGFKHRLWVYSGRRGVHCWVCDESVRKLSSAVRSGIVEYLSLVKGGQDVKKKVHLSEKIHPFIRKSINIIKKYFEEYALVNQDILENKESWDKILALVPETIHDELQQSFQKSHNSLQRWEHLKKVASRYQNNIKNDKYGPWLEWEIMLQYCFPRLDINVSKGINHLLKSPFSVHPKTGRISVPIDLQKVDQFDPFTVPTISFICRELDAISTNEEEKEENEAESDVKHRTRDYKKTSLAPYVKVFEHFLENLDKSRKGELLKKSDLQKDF
UniProt Q9UMS4: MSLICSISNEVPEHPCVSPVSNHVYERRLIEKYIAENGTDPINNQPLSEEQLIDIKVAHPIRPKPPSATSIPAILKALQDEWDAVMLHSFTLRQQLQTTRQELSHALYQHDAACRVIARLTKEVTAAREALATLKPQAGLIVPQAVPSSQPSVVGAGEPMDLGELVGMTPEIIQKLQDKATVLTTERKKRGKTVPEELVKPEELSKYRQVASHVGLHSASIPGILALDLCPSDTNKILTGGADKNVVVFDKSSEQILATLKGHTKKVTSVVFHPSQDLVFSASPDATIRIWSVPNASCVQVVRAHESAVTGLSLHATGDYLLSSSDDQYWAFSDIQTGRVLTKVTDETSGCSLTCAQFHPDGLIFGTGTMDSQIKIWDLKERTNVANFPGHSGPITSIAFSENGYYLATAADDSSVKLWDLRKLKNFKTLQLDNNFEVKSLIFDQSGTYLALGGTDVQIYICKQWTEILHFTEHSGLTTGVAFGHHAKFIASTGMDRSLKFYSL
UniProt P49593: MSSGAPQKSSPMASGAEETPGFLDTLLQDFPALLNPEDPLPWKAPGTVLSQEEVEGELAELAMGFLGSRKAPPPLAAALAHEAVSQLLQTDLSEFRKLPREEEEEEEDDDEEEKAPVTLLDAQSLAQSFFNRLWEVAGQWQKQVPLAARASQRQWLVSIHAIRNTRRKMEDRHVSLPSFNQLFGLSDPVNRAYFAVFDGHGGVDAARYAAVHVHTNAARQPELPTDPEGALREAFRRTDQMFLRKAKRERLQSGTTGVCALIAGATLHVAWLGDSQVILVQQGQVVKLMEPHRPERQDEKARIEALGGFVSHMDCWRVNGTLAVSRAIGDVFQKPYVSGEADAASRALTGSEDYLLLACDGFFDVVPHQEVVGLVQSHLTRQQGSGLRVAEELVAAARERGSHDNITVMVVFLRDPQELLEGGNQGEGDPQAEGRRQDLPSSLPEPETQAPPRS
UniProt Q8WUA2: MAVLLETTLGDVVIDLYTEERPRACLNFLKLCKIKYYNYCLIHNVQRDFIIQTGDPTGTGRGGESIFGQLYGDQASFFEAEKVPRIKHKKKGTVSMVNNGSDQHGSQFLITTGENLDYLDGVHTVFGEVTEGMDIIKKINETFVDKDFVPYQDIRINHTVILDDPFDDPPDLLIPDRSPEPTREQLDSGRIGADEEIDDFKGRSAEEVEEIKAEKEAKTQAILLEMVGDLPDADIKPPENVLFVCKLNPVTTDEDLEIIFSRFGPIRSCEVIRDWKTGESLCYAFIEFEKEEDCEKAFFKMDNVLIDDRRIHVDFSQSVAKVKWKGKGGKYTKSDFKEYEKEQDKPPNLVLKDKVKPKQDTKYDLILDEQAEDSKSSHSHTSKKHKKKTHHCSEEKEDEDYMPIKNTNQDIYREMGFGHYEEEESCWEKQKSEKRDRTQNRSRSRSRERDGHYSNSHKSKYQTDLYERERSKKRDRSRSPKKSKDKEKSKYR
UniProt Q06830: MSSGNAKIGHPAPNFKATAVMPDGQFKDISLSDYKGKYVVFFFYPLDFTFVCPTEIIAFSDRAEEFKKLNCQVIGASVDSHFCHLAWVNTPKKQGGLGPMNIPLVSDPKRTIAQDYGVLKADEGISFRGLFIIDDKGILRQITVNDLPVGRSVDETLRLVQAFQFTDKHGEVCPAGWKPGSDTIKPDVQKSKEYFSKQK
UniProt Q96A00: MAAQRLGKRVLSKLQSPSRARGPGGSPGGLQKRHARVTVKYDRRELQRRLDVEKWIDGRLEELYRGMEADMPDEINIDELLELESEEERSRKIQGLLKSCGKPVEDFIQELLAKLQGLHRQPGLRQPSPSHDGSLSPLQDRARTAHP
UniProt Q6IN85: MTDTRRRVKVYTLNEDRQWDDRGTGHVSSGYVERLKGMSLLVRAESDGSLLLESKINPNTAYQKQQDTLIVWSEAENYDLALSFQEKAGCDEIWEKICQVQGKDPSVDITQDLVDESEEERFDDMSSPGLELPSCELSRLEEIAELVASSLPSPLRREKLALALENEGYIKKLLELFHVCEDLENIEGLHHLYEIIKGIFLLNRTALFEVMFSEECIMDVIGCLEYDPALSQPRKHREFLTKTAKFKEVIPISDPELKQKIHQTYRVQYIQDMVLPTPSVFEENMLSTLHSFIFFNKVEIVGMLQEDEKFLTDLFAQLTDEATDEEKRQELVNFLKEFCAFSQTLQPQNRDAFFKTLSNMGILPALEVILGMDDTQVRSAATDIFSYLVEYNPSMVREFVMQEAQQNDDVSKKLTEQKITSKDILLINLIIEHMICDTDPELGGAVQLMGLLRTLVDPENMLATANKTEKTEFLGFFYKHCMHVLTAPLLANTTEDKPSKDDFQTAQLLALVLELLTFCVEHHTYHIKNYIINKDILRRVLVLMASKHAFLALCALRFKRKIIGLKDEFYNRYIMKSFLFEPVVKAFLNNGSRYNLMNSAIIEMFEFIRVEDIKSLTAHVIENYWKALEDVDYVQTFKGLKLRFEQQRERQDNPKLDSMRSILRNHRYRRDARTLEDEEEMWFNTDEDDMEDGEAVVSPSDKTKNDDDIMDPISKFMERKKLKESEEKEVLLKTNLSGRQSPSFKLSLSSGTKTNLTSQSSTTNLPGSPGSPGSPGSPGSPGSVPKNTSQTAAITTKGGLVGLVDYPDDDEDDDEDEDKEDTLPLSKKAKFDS
UniProt Q9Y478: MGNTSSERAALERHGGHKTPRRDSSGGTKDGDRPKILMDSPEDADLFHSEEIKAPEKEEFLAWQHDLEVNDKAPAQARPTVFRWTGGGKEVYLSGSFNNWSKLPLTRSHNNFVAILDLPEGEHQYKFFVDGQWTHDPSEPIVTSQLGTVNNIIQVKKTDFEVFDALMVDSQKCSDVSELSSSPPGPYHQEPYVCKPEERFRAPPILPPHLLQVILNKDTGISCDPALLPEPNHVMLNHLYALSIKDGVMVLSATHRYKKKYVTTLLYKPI
UniProt Q13162: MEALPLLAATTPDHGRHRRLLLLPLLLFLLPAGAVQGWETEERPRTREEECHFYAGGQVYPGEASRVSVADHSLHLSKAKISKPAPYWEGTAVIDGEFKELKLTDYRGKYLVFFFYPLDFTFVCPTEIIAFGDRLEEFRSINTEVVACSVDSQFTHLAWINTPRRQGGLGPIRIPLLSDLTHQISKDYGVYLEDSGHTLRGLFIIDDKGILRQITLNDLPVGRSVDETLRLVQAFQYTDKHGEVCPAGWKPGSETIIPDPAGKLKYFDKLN
UniProt P63151: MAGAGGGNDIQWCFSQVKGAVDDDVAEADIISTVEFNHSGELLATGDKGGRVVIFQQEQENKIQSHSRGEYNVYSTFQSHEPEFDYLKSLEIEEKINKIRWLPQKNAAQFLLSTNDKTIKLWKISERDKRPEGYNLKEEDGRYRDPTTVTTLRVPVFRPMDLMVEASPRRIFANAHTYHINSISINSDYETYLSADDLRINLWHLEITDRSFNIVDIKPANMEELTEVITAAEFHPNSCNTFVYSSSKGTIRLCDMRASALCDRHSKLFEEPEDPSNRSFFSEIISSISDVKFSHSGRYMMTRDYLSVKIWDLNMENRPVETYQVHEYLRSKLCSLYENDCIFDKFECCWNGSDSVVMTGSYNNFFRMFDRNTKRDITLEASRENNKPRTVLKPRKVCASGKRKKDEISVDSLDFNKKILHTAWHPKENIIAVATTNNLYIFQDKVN
UniProt Q5VTL8: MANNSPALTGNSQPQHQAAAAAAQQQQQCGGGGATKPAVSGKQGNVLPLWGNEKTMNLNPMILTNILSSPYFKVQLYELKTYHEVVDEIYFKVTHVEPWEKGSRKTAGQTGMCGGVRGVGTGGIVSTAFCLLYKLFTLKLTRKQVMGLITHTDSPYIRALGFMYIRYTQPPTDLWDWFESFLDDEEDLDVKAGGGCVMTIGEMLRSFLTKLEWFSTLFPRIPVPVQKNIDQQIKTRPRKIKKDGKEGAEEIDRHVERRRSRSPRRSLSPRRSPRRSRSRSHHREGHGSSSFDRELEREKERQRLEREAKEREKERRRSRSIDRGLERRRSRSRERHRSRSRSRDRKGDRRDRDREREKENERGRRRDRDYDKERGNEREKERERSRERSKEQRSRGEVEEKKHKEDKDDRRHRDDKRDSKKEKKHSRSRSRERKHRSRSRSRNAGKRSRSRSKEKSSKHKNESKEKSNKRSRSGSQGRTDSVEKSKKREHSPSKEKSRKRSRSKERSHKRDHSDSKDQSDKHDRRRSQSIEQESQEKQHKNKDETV
UniProt Q4J6C6, whole entry, looked up: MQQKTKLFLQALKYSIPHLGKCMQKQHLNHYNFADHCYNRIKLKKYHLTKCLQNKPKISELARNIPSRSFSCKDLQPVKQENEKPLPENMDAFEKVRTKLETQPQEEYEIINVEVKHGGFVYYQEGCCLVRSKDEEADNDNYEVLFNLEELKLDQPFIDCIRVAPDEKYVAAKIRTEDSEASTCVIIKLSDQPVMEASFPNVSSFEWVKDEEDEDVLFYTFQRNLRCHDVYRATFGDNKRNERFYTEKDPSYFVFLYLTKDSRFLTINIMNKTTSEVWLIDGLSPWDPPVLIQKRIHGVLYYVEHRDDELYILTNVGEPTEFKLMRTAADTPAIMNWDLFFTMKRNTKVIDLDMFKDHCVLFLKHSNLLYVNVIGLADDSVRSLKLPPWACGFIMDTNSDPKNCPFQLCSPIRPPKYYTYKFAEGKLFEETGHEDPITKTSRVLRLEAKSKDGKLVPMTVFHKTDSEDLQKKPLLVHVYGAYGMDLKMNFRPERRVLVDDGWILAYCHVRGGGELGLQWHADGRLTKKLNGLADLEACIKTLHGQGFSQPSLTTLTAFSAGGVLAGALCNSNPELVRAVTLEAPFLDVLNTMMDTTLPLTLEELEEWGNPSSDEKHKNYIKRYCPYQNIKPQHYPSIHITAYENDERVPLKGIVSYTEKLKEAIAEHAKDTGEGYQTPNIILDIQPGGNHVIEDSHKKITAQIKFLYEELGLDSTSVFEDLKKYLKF

Legend:
Assay in all cases: log2 fold change, soluble protein after heating vs DMSO (PISA); higher = thermal stabilisation; K562 lysate, 10 uM; active = over 0.2 and 3.5 SD of the protein, either way, in both replicates (recomputed)
erlotinib = compound: C#Cc1cccc(Nc2ncnc3cc(OCCOC)c(OCCOC)cc23)c1 [erlotinib]
Procedure, shortened: (§1)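 A 30 min treatment with 10 μM compound was applied to crude K562 extract at 1 mg/mL protein in PBS pH 7.4 with 1 mM MgCl2. Heating for 3 min spanned 48°C-58°C, after which aliquots were pooled, adjusted to 0.5% NP-40 at 4°C and spun at 21,000xg for 90 min. TMTpro 16plex LC-MS/MS of the supernatant, with channel sums equalised, gave values recorded as log-two fold change in thermal stability against solvent controls, from duplicates.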

[1] = compound: C/C(=N\NC(=O)C1=CC(=CC=C1)S(=O)(=O)N2CCOCC2)/C3=C(C=CC(=C3)Cl)O
Procedure, shortened: as §1

[2] = compound: C1=CC(=CC=C1C2=NC3=C(N2)C=C(C=C3)C(=O)N)OC4=CC=C(C=C4)Cl
Procedure, shortened: as §1

[3] = compound: C1=CC2=C(C=CC(=C2)/C=C\3/C(=O)NC(=NCC4=CC=CS4)S3)N=C1
Procedure, shortened: as §1

[4] = compound: C1=CC2=NC=CN=C2C=C1/C=C/3\C(=O)NC(=O)S3
Procedure, shortened: as §1

[5] = compound: C1=CC=C(C=C1)C2=NC(=C(N2)C3=CC=NC=C3)C4=CC(=C(C=C4)Cl)O
Procedure, shortened: as §1

[6] = compound: C1=CC=C2C(=C1)C3=NNC4=CC=CC(=C43)C2=O
Procedure, shortened: as §1

[7] = compound: C1CCN(C1)C(=O)NC2=CC=CC(=C2)NC3=NC=C(C(=N3)NCCC4=CN=CN4)Br
Procedure, shortened: as §1

[8] = compound: C1CN(CCC1(CC2=CC=C(C=C2)Cl)N)C3=NC=NC4=C3C=CN4
Procedure, shortened: as §1

IRAK-1-4 Inhibitor I = compound: C1COCCN1CCN2C3=CC=CC=C3N=C2NC(=O)C4=CC(=CC=C4)[N+](=O)[O-] [IRAK-1-4 Inhibitor I]
Procedure, shortened: as §1

ibrutinib = compound: C=CC(=O)N1CCC[C@@H](n2nc(-c3ccc(Oc4ccccc4)cc3)c3c(N)ncnc32)C1 [ibrutinib]
Procedure, shortened: as §1

[9] = compound: CC(=O)c1cnc2ccc(-c3cc(Cl)c(O)c(Cl)c3)nc2c1N[C@H]1CC[C@H](CN(C)C)CC1
Procedure, shortened: as §1

ralimetinib = compound: CC(C)(C)Cn1c(N)nc2ccc(-c3[nH]c(C(C)(C)C)nc3-c3ccc(F)cc3)nc21 [ralimetinib]
Procedure, shortened: as §1

[10] = compound: CC(C)(O)CC(=O)NCCn1ccc2ncnc(Nc3ccc(Oc4cccc(C(F)(F)F)c4)c(Cl)c3)c21
Procedure, shortened: as §1

[11] = compound: CC(C)C1=C2N=C(C=C(N2N=C1)NCC3=CC=CC=C3)NCCCCCCN
Procedure, shortened: as §1

[12] = compound: CC1=C(C(CC(=O)N1)C2=CC=C(C=C2)C(F)(F)F)C(=O)NC3=C(C=C4C(=C3)C=NN4)F
Procedure, shortened: as §1

[13] = compound: CC1=C(C2=C(C=C1)C(=O)C3=CC=CC=C3N2CCCN)C
Procedure, shortened: as §1

[14] = compound: CC1=C(C=C(C=C1)NC(=O)C2=CC(=CC=C2)C(C)(C)C#N)NC3=CC4=C(C=C3)N=CN(C4=O)C
Procedure, shortened: as §1

[15] = compound: CC1=C(C=C(C=C1)NC(=O)C2=CC(=CC=C2)N(C)C)NC(=O)C3=CC=C(C=C3)O
Procedure, shortened: as §1

[16] = compound: CC1=CC=C(C=C1)SC2=C3C=C(SC3=CN=C2)C(=O)N
Procedure, shortened: as §1

Measured: log2 fold change

PRMT1 (UniProt Q99873)
inactive: erlotinib 0.015 | [1] -0.002 | [2] 0.01 | [3] -0.008 | [4] 0.003 | [5] -0.004 | [6] -0.024 | [7] -0.017 | [8] 0.026 | IRAK-1-4 Inhibitor I 0.006 | ibrutinib -0.008 | [9] -0.018 | ralimetinib -0.006 | [10] 0.01 | [11] 0 | [12] -0.027 | [13] -0.015 | [14] 0.056 | [15] -0.001 | [16] 0.01

PPP1CB (UniProt P62140)
inactive: erlotinib -0.002 | [1] 0.019 | [2] 0.022 | [3] 0.012 | [4] -0.068 | [5] 0.003 | [6] 0.014 | [7] 0.005 | [8] -0.046 | IRAK-1-4 Inhibitor I -0.007 | ibrutinib -0.003 | [9] -0.014 | ralimetinib 0.049 | [10] 0.006 | [11] -0.011 | [12] -0.014 | [13] -0.009 | [14] -0.04 | [15] 0.008 | [16] -0.008

PRIM1 (UniProt P49642)
inactive: erlotinib -0.004 | [1] 0.061 | [2] -0.011 | [3] -0.01 | [4] -0.03 | [5] 0.02 | [6] 0 | [7] -0.006 | [8] 0.002 | IRAK-1-4 Inhibitor I 0.003 | ibrutinib -0.016 | [9] 0.014 | ralimetinib 0.056 | [10] 0.056 | [11] 0.016 | [12] 0.027 | [13] -0.019 | [14] 0.015 | [15] 0.011 | [16] 0.02

PROS1 (UniProt P07225)
inactive: erlotinib -0.008 | [1] -0.049 | [2] 0.021 | [3] 0 | [4] -0.021 | [5] -0.026 | [6] -0.006 | [7] 0 | [8] 0.054 | IRAK-1-4 Inhibitor I -0.028 | ibrutinib -0.014 | [9] -0.034 | ralimetinib 0.052 | [10] 0.014 | [11] 0.007 | [12] 0.013 | [13] -0.003 | [14] 0.001 | [15] -0.023 | [16] -0.004

PRPF19 (UniProt Q9UMS4)
inactive: erlotinib -0.007 | [1] -0.025 | [2] 0 | [3] 0.027 | [4] 0.011 | [5] -0.027 | [6] -0.013 | [7] 0.041 | [8] -0.041 | IRAK-1-4 Inhibitor I -0.032 | ibrutinib -0.006 | [9] -0.003 | ralimetinib 0.009 | [10] 0.013 | [11] 0.015 | [12] -0.014 | [13] 0.023 | [14] -0.004 | [15] -0.017 | [16] -0.008

PPM1F (UniProt P49593)
inactive: erlotinib -0.013 | [1] 0.001 | [2] -0.048 | [3] 0.022 | [4] 0.001 | [5] -0.047 | [6] 0.005 | [7] 0.012 | [8] -0.015 | IRAK-1-4 Inhibitor I 0.007 | ibrutinib -0.009 | [9] 0.012 | ralimetinib -0.005 | [10] 0.028 | [11] -0.027 | [12] 0 | [13] -0.008 | [14] -0.004 | [15] -0.049 | [16] 0.015

PPIL4 (UniProt Q8WUA2)
inactive: erlotinib -0.014 | [1] -0.015 | [2] 0.008 | [3] -0.018 | [4] -0.012 | [5] 0.018 | [6] 0.024 | [7] -0.023 | [8] 0.03 | IRAK-1-4 Inhibitor I -0.028 | ibrutinib 0.012 | [9] 0.002 | ralimetinib -0.013 | [10] -0.007 | [11] -0.002 | [12] -0.02 | [13] -0.041 | [14] 0.01 | [15] 0.004 | [16] 0

PRDX1 (UniProt Q06830)
inactive: erlotinib -0.013 | [1] 0.015 | [2] 0.071 | [3] -0.009 | [4] -0.02 | [5] -0.021 | [6] 0.01 | [7] 0.002 | [8] -0.01 | IRAK-1-4 Inhibitor I -0.009 | ibrutinib 0.021 | [9] -0.006 | ralimetinib 0.001 | [10] -0.02 | [11] 0.031 | [12] -0.009 | [13] 0 | [14] -0.024 | [15] 0.009 | [16] -0.02

PPP1R14A (UniProt Q96A00)
inactive: erlotinib 0.031 | [1] 0.058 | [2] 0.056 | [3] -0.064 | [4] -0.015 | [5] 0.035 | [6] 0.023 | [7] -0.004 | [8] -0.006 | IRAK-1-4 Inhibitor I 0.004 | ibrutinib 0.095 | [9] 0.001 | ralimetinib -0.015 | [10] 0.021 | [11] 0.002 | [12] -0.02 | [13] -0.003 | [14] 0.05 | [15] -0.004 | [16] -0.011

PPP4R3A (UniProt Q6IN85)
inactive: erlotinib -0.001 | [1] 0.001 | [2] -0.021 | [3] 0.021 | [4] -0.031 | [5] -0.016 | [6] -0.011 | [7] -0.018 | [8] 0.008 | IRAK-1-4 Inhibitor I 0.045 | ibrutinib 0.041 | [9] -0.013 | ralimetinib 0.005 | [10] 0.026 | [11] 0.026 | [12] -0.021 | [13] -0.044 | [14] -0.01 | [15] -0.017 | [16] -0.001

PPP2R5D (UniProt Q14738)
inactive: erlotinib 0.033 | [1] 0.042 | [2] 0.004 | [3] 0 | [4] -0.018 | [5] -0.009 | [6] 0.007 | [7] 0.031 | [8] 0.013 | IRAK-1-4 Inhibitor I 0.006 | ibrutinib -0.04 | [9] 0.016 | ralimetinib 0.022 | [10] 0.003 | [11] 0.01 | [12] 0.009 | [13] 0.006 | [14] -0.044 | [15] 0.021 | [16] 0.018

PRKAB1 (UniProt Q9Y478)
inactive: erlotinib 0.004 | [1] -0.01 | [2] 0.017 | [3] -0.02 | [4] 0.031 | [5] -0.005 | [6] 0.135 | [7] 0.166 | [8] 0.088 | IRAK-1-4 Inhibitor I 0.067 | ibrutinib -0.012 | [9] -0.011 | ralimetinib -0.044 | [10] -0.051 | [11] -0.024 | [12] -0.002 | [13] 0.035 | [14] -0.015 | [15] -0.033 | [16] -0.044

PRDX4 (UniProt Q13162)
inactive: erlotinib -0.057 | [1] -0.05 | [2] 0.032 | [3] -0.045 | [4] 0.009 | [5] -0.041 | [6] 0.003 | [7] -0.003 | [8] -0.003 | IRAK-1-4 Inhibitor I -0.008 | ibrutinib 0.052 | [9] 0.014 | ralimetinib 0.06 | [10] -0.021 | [11] 0.005 | [12] -0.006 | [13] -0.006 | [14] 0 | [15] 0.022 | [16] -0.024

PPP2R2A isoform 2 (UniProt P63151)
inactive: erlotinib -0.003 | [1] -0.033 | [2] 0.023 | [3] 0.002 | [4] -0.006 | [5] -0.016 | [6] -0.007 | [7] 0.005 | [8] 0.003 | IRAK-1-4 Inhibitor I 0.024 | ibrutinib 0.01 | [9] -0.003 | ralimetinib 0.013 | [10] -0.051 | [11] 0.005 | [12] -0.013 | [13] 0.001 | [14] -0.006 | [15] -0.015 | [16] -0.016

PRPF38B (UniProt Q5VTL8)
inactive: erlotinib 0.053 | [1] 0.021 | [2] 0.017 | [3] 0.027 | [4] -0.031 | [5] 0.025 | [6] 0.013 | [7] 0.021 | [8] 0.021 | IRAK-1-4 Inhibitor I -0.028 | ibrutinib -0.011 | [9] 0.001 | ralimetinib 0.041 | [10] -0.017 | [11] 0.027 | [12] -0.016 | [13] -0.006 | [14] -0.002 | [15] -0.006 | [16] 0.017

PREPL (UniProt Q4J6C6)
inactive: erlotinib -0.002 | [1] -0.054 | [2] -0.002 | [3] 0 | [4] -0.031 | [5] -0.005 | [6] -0.001 | [7] -0.025 | [8] 0.018 | IRAK-1-4 Inhibitor I -0.024 | ibrutinib 0.033 | [9] -0.009 | ralimetinib -0.006 | [10] -0.027 | [11] -0.02 | [12] 0.029 | [13] 0.002 | [14] 0.001 | [15] 0 | [16] 0.009

Retrieved one by one from the list above, 2 records:
PRPF38B (UniProt Q5VTL8)
inactive: erlotinib 0.053 | [1] 0.021 | [2] 0.017 | [3] 0.027 | [4] -0.031 | [5] 0.025 | [6] 0.013 | [7] 0.021 | [8] 0.021 | IRAK-1-4 Inhibitor I -0.028 | ibrutinib -0.011 | [9] 0.001 | ralimetinib 0.041 | [10] -0.017 | [11] 0.027 | [12] -0.016 | [13] -0.006 | [14] -0.002 | [15] -0.006 | [16] 0.017

PREPL (UniProt Q4J6C6)
inactive: erlotinib -0.002 | [1] -0.054 | [2] -0.002 | [3] 0 | [4] -0.031 | [5] -0.005 | [6] -0.001 | [7] -0.025 | [8] 0.018 | IRAK-1-4 Inhibitor I -0.024 | ibrutinib 0.033 | [9] -0.009 | ralimetinib -0.006 | [10] -0.027 | [11] -0.02 | [12] 0.029 | [13] 0.002 | [14] 0.001 | [15] 0 | [16] 0.009
